According to US20100009439A1:
Results are given in words; binding and its absence hold for the method and conditions named. Some results given as binding are weak or reduced against the parent protein; the word gives no strength.

Biological target: purified full-length human IGF-I receptor (human), P08069
Assay: ELISA on immobilized IGF-I receptor with prolonged washes
Settings: remark: other sources report otherwise

B1: murine EM164 antibody (antibody, V domains shown)
VH: QVQLQQSGAELVKPGASVKLSCKASGYTFTSYWMHWVKQRPGQGLEWIGEINPSNGRTNYNEKFKRKATLTVDKSSSTAYMQLSSLTSEDSAVYYFARGRPDYYGSSKWYFDVWGAGTTVTVS
VL: DVLMTQTPLSLPVSLGDQASISCRSSQSIVHSNVNTYLEWYLQKPGQSPKLLIYKVSNRFSGVPDRFSGSGSGTDFTLRISRVEAEDLGIYYCFQGSHVPPTFGGGTKLEIKR
modifications: here or on the partner: biotinylated with PEO-maleimide-biotin in the captured format
- binding: binds
